From US10130830B2, “Preservative systems comprising cationic surfactants” (Laboratorios Miret, S.A., priority 2005, dated 2018)
“And” between values parts separate entries of the source, which are not always exact repeats. Equal entries are not always repeated. Further values from the same series stand in other lists.

Key:
Assay type in all cases: cell-based
[1] = system: aerobic total count; test: Preservative action in soaked chickpeas, aerobic total count; details: Example 13, soaked chickpeas, LAE 0.2 g/kg in soaking water, samples 1-3
Procedure: (4) Determination of Preservative Action in Soaked Chick-peas.
Chickpeas are the principal ingredients in a lot of ready-to-eat meals. Before cooking them, chickpeas have to be soaked in water at room temperature for 24 hours. During this period, fermentation processes may occur and therefore, chickpeas would not be suitable for eating. The soaking process cannot be made at refrigeration temperatures, because the structure of the chickpeas could be damaged.
• 1. Chickpeas were soaked in water for 24 hours at 30° C. and 50% HR (in treated samples preservative was added at this point); and • 2. after 24 hours the chickpeas were strained. Analysis • Samples were analysed (aerobic total count and concentration of the cationic surfactant) by triplicate for 24 hours. • Aerobic total count was analysed by stomaching 25 g of chickpeas in 225 g of buffered peptone water. Dilutions were made in buffered peptone water. Tryptone Soya Agar was harvested with each dilution and incubated at 35° C. for 48 hours. • Average values in log cfu/g of three samples per treatment and day of analysis were calculated. • LAE was analysed by HPLC using an internally validated method.

[2] = system: aerobic total count; test: Preservative action in cooked chicken breast, aerobic total count
Procedure: (2) Determination of Preservative Action in Chicken Breast. Process of Preparation • 1. Fresh chicken breast was diced to pieces • 2. Brine (8.70% sodium chloride and 4.35% tripolyphosphate in water) was added to the fresh chicken in an amount of 11.5 g brine per 88.5 g meat in the control preparation and 11.5 g brine and 88.4 g meat in the preparations treated with preservative. • 3. Brine and meat were mixed during 15 minutes, in the preparations treated with preservative the preservative was added after 14 minutes in an amount of 0.2 g/kg. • 4. Vacuum refrigerate tumbling was made during 30 minutes. • 5. Samples were vacuum-packed in sterile bags and they were cooked at 85° C. for 30 minutes. • 6. The cooked chicken was refrigerated at 4° C. • 7. The cooked chicken was diced in irregular shapes. • 8. Then, the nuggets were stored at 10° C. in sterile vacuum-packed bags. Analysis […] Dilutions were made in buffered peptone water. Tryptone Soya Agar was harvested with each dilution and incubated at 35° C. for 48 hours. The mean value in log cfu/g of three samples per treatment and day of analysis was calculated.

[3] = system: aerobic total count; test: Preservative action in bratwurst sausage, aerobic total count; details: Example 11, bratwurst sausage, LAE 0.2 g/kg
Procedure: (3) Determination of Preservative Action in Bratwurst Sausage.
The ingredients for all samples were : minced pork back, underbelly, spices, salt and additives (milk protein, diphosphate, antioxidant (E-300) and flavour enhance (E-621)).
1. On the cutter the minced pork back meat was ground and the ingredients were added in this order: the additives (except the preservative system), the underbelly, the spices and the preservative system (such as the cationic surfactant alone or in combination with other products). Ice was also added for controlling the temperature (maximum 5° C.) of the meat. The mixing time was 12 minutes.
2. The mass was vacuum mixed (92%) for 1 minute.
3. The mixture was stuffed into natural casings. The casings were previously soaked in a salted water solution for 30 minutes.
4. The bratwurst sausages were put in a cooking trolley. Cooking took place in a oven at 80° C. for 1 hour.
5. After cooking, the bratwurst sausages were sprayed with cool water for 5 minutes and put in a cold-storage room (0-5° C., 24 hours).
6. The next day, bratwurst sausages were packed (each packed contained five sausages) and pasteurised at 80° C. for 30 minutes and then. After, they were soaked in cool water for 30 minutes.
7. Finally, the bratwurst sausages were labelled and stored at 5° C. for 90 days.
Samples were analysed (aerobic total count) for up to 90 days. Aerobic total count was analysed by stomaching 25 g of sausage in 225 g of buffered peptone water. Dilutions were made in buffered peptone water. Tryptone Soya Agar was harvested with each dilution and incubated at 35° C. for 48 hours.
Average values in log cfu/g of three samples per treatment and day of analysis were calculated.

## CCCCCCCCCCCC(=O)N[C@@H](CCCN=C(N)N)C(=O)OCC.Cl [LAE, ethyl ester of the lauramide of the arginine monohydrochloride]
[1]; 0 hours
  aerobic total count: 2.0 log cfu/g
[1]; 4 hours
  aerobic total count: 2.0 log cfu/g
[1]; 8 hours
  aerobic total count: 2.7 log cfu/g
[1]; 8 hours, monohydrochloride
  aerobic total count: 2.6 log cfu/g and 2.3 log cfu/g
[1]; 16 hours, monohydrochloride
  aerobic total count: 3.9 log cfu/g and 3.6 log cfu/g
[1]; 24 hours, monohydrochloride
  aerobic total count: 4.2 log cfu/g and 4.5 log cfu/g and 4.1 log cfu/g
[2]; Example 14, cooked chicken, LAE 0.2 g/kg, day 0, samples 1-3
  aerobic total count: 2.0 log cfu/g
[2]; Example 14, cooked chicken, LAE 0.2 g/kg, day 56, samples 1-3, monohydrochloride
  aerobic total count: 5.6 log cfu/g and 6.0 log cfu/g
[2]; Example 16, cooked chicken, 0.20 g of LAE/kg, day 0, samples 1-3
  aerobic total count: 2.0 log cfu/g
[2]; Example 16, cooked chicken, 0.20 g of LAE/kg, day 7, samples 1-3
  aerobic total count: 2.0 log cfu/g
[2]; Example 16, cooked chicken, 0.20 g of LAE/kg, day 14, samples 1-3
  aerobic total count: 2.4 log cfu/g
[2]; Example 16, cooked chicken, 0.20 g of LAE/kg, day 14, samples 1-3, monohydrochloride
  aerobic total count: 2.2 log cfu/g and 2.1 log cfu/g
[2]; Example 16, cooked chicken, 0.20 g of LAE/kg, day 21, samples 1-3, monohydrochloride
  aerobic total count: 2.7 log cfu/g and 2.6 log cfu/g and 3.1 log cfu/g
[2]; Example 16, cooked chicken, 0.20 g of LAE/kg, day 28, samples 1-3, monohydrochloride
  aerobic total count: 2.9 log cfu/g and 3.2 log cfu/g and 3.4 log cfu/g
[2]; Example 16, cooked chicken, 0.20 g of LAE/kg, day 35, samples 1-3, monohydrochloride
  aerobic total count: 3.4 log cfu/g and 3.7 log cfu/g
[2]; Example 16, cooked chicken, 0.20 g of LAE/kg, day 42, samples 1-3, monohydrochloride
  aerobic total count: 4.5 log cfu/g and 4.3 log cfu/g and 4.1 log cfu/g
[2]; Example 16, cooked chicken, 0.20 g of LAE/kg, day 49, samples 1-3, monohydrochloride
  aerobic total count: 5.0 log cfu/g and 4.7 log cfu/g and 5.1 log cfu/g
[2]; Example 16, cooked chicken, 0.20 g of LAE/kg, day 56, samples 1-3, monohydrochloride
  aerobic total count: 5.6 log cfu/g and 5.4 log cfu/g
[2]; Example 18, cooked chicken, 0.2 g of LAE/kg, day 0, samples 1-3
  aerobic total count: 2.0 log cfu/g
[2]; Example 18, cooked chicken, 0.2 g of LAE/kg, day 7, samples 1-3
  aerobic total count: 2.0 log cfu/g
[2]; Example 18, cooked chicken, 0.2 g of LAE/kg, day 14, samples 1-3
  aerobic total count: 2.4 log cfu/g
[2]; Example 18, cooked chicken, 0.2 g of LAE/kg, day 14, samples 1-3, monohydrochloride
  aerobic total count: 2.2 log cfu/g and 2.6 log cfu/g
[2]; Example 18, cooked chicken, 0.2 g of LAE/kg, day 21, samples 1-3, monohydrochloride
  aerobic total count: 3.0 log cfu/g and 2.7 log cfu/g and 3.1 log cfu/g
[2]; Example 18, cooked chicken, 0.2 g of LAE/kg, day 28, samples 1-3
  aerobic total count: 3.4 log cfu/g
[2]; Example 18, cooked chicken, 0.2 g of LAE/kg, day 28, samples 1-3, monohydrochloride
  aerobic total count: 3.3 log cfu/g and 3.5 log cfu/g
[2]; Example 18, cooked chicken, 0.2 g of LAE/kg, day 35, samples 1-3, monohydrochloride
  aerobic total count: 3.6 log cfu/g and 3.7 log cfu/g
[2]; Example 18, cooked chicken, 0.2 g of LAE/kg, day 42, samples 1-3, monohydrochloride
  aerobic total count: 4.3 log cfu/g and 4.0 log cfu/g and 3.9 log cfu/g
[2]; Example 18, cooked chicken, 0.2 g of LAE/kg, day 49, samples 1-3, monohydrochloride
  aerobic total count: 5.3 log cfu/g and 5.0 log cfu/g and 5.2 log cfu/g
[2]; Example 18, cooked chicken, 0.2 g of LAE/kg, day 56, samples 1-3, monohydrochloride
  aerobic total count: 5.8 log cfu/g and 5.4 log cfu/g and 5.9 log cfu/g
[3]; day 0, samples 1-3
  aerobic total count: 2.0 log cfu/g
[3]; day 15, samples 1-3
  aerobic total count: 2.0 log cfu/g
[3]; day 30, samples 1-3, monohydrochloride
  aerobic total count: 2.3 log cfu/g and 2.5 log cfu/g
[3]; day 45, samples 1-3
  aerobic total count: 2.9 log cfu/g
[3]; day 45, samples 1-3, monohydrochloride
  aerobic total count: 2.5 log cfu/g and 3.0 log cfu/g
[3]; day 60, samples 1-3
  aerobic total count: 3.6 log cfu/g
[3]; day 60, samples 1-3, monohydrochloride
  aerobic total count: 3.3 log cfu/g and 3.2 log cfu/g
[3]; day 75, samples 1-3, monohydrochloride
  aerobic total count: 3.9 log cfu/g and 3.6 log cfu/g
[3]; day 90, samples 1-3, monohydrochloride
  aerobic total count: 4.2 log cfu/g and 4.1 log cfu/g and 4.4 log cfu/g
